Reference: PubChem BioAssay AID624297 (National Center for Advancing Translational Sciences (NCATS), 2012)
The whole screen tested about 340,000 compounds, of which about 6,200 (1.8%) were called active. Inconclusive means that the source gave no clear call. Such entries were picked first, then a sample of the others. The call rests on the fitted dose curve; in most records, active means well fitted activation curve with a large enough effect; inconclusive means small, poorly fitted or top-dose-only effect; inactive means no such curve, though single readings can be large or run the other way. A potency beside an inconclusive call is a rough fit, not a confirmed value.

assay: A quantitative high throughput screen for small molecules that induce DNA re-replication in SW480 colon adenocarcinoma cells.; further: nearly all actives have a fitted effect of over 55% in size; conditions: Hoechst DNA content imaging, 48 h; series mostly up to 46.1 µM
Method in brief: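 Image-based DNA-content assay: after two days of treatment, nuclei were labelled with the DNA dye Hoechst and imaged, and hits were compounds raising the count of nuclei showing high fluorescence intensity.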
Potency means the concentration at half of the fitted maximal effect.

| SMILES | Potency |
| --- | --- |
| COc1ccc(C(O)Cc2nccn2C)cc1 (configuration not stated) | inconclusive: 29.1 µM [activator, single point] |
| CCOC(=O)c1ccc(NC2=CC(=O)C(=O)c3ccccc32)cc1 | inconclusive: 20.6 µM [activator, single point] |
| CCNC(=O)c1ccc(C23CC4CC(CC(C4)C2)C3)o1 | inconclusive: 32.6 µM [activator, partial curve, poor fit] |
| S=C(NCc1ccncc1)Nc1ccc(Cl)c(Cl)c1 | inactive |
| O=[N+]([O-])c1ccccc1S(=O)(=O)N1CCSCC1 | inconclusive: 0.146 µM [activator, full curve, poor fit] |
| Cn1c(-c2cccc([N+](=O)[O-])c2)cnc1NCc1ccc(C#N)cc1 | inactive |
| CC(=O)c1nn(-c2cccc(Br)c2)cc1C(=O)c1ccc(Cl)cc1 | inconclusive: 18.4 µM [activator, single point] |
| CCc1cc(/C(Cc2ccccn2)=N\O)c(O)cc1O | inconclusive: 29.1 µM [activator, single point] |
| CC1(C)CC(=O)C2=C(C1)Nc1ccccc1S2 | inconclusive: 29.1 µM [activator, single point] |
| Cc1ccc2nc(-c3ccc(NC(=S)NC4CC(C)(C)NC(C)(C)C4)cc3)sc2c1 | inconclusive: 20.6 µM [activator, single point] |
| CCN1CCN(c2ccc(S(=O)(=O)N3CCCCC3)cc2NC(=O)/C=C/c2cccc(OC)c2OC)CC1 | inconclusive: 16.4 µM [activator, single point] |
| CCn1cc(/C=C(\NC(=O)c2ccccc2Cl)C(=O)N2CCN(C)CC2)c2ccccc21 | inconclusive: 29.1 µM [activator, single point] |
| COC(=O)CSc1nccc(-c2cccs2)n1 | inconclusive: 0.092 µM [activator, full curve, poor fit] |
| Cc1cc(C(=O)COC(=O)Cc2n[nH]c(=O)c3ccccc23)c(C)n1-c1ccc2c(c1)OCCO2 | inconclusive: 4.11 µM [activator, partial curve, poor fit] |
| CCOC(=O)CCC(=O)Nc1cc(S(=O)(=O)N2CCOCC2)ccc1N1CCCCC1 | inconclusive: 18.4 µM [activator, single point] |
| O=C(COC(=O)c1cc(S(=O)(=O)N2CCCCC2)ccc1N1CCOCC1)c1ccc(Cl)cc1 | active: 6.51 µM |
| Cc1ccc(NC(=O)CNc2cc(S(=O)(=O)N3CCOCC3)ccc2NCC2CCCO2)cc1F (configuration not stated) | inconclusive: 29.1 µM [activator, single point] |

Part of the list above in another layout:
SMILES | Potency
Cc1cc(C(=O)COC(=O)Cc2n[nH]c(=O)c3ccccc23)c(C)n1-c1ccc2c(c1)OCCO2 | inconclusive: 4.11 µM [activator, partial curve, poor fit]
CCOC(=O)CCC(=O)Nc1cc(S(=O)(=O)N2CCOCC2)ccc1N1CCCCC1 | inconclusive: 18.4 µM [activator, single point]
